# Results from PubChem BioAssay AID1347076 (National Center for Advancing Translational Sciences (NCATS), 2019).
# Out of some 400,000 compounds screened, about 13,000 (3.2%) were called active. This list was built around the results that the source calls inconclusive (neither active nor inactive); the mix of calls is not that of the screen. Calls follow the shape of the dose curve; as a rule, active = well fitted cell-killing curve with a large enough effect; inconclusive = small, poorly fitted or top-dose-only effect, or effect the other way; inactive = flat fitted curve, though single readings scatter. Where the call is inconclusive, the potency comes from a doubtful curve fit.
# Experiment: qHTS assay for MDR1-selective chemotherapeutics: Primary screen using the drug-selected MDR subline cells KB-V1; also: nearly all actives have a fitted effect of over 60% in size
# Settings: KB-V1 MDR cells viability, CellTiter-Glo, 72 h; activity change, negative = cytotoxicity: at 46.1 µM (top of the series)
# Method in brief: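 Drug-selected KB-V1 cells, grown in DMEM lacking phenol red with 10% FBS, receive compound titrations; after three days at 37 degrees C, surviving cell ATP is quantified by CellTiter-Glo luminescence and responses normalized and curve-fitted.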
# % is scaled to controls: 0 for no effect and ±100 for the full control effect; potency is read from the fitted curve at half-maximal effect.
Structure (SMILES),Potency,"activity change, negative = cytotoxicity"
CC(Nc1ccccc1N1CCCCC1)C(=O)N1CCc2ccccc21 (stereo not drawn),inactive,
CCOC(=O)C1=C(C)NC(C)=C(C(=O)OCC)C1c1cccc([N+](=O)[O-])c1,"inconclusive: 10.3 µM [cytotoxic, partial curve, poor fit]",
NC(=O)c1cn(-c2ccccc2)nc1-c1cc2ccccc2oc1=O,inactive,
Cc1ccc(Oc2cc(NC(=O)CCCn3nc([N+](=O)[O-])cc3C)cc([N+](=O)[O-])c2)cc1,active: 5.17 µM,
CCCCC(CC)C1OCC(C[N+]2(C)CCOCC2)O1 (stereo not drawn),"inconclusive: 29.1 µM [rising, single point]",
Clc1ccccc1-c1nnc(-c2ccc3c(c2)OCO3)o1,"inconclusive: 18.4 µM [cytotoxic, single point]",
Cc1ccc2c(c1)c1c3n2CC(=C2C(=O)OC(C)(C)OC2=O)NC3CCC1 (stereo not drawn),active: 20.6 µM,
C=CCn1c(-c2cc(OC)c(OC)c(OC)c2)n[nH]c1=S,"inconclusive: 35.5 µM [cytotoxic, single point]",
Cc1ccc2cc(CN(CC3CCCO3)C(=S)NCc3ccco3)c(=O)[nH]c2c1C (stereo not drawn),,inconclusive: -35.8% [cytotoxic]
Cc1ccccc1OCCNC(=O)CNC(=O)c1ccccc1O,active: 16.4 µM,
CC(=O)c1ccc(N2CCN(C(=O)NCc3noc4ccc(C)cc34)CC2)cc1,"inconclusive: 23.1 µM [cytotoxic, single point]",
COC(=O)CCc1sc(Nc2ccc(OC)cc2)nc1-c1ccc(OC)cc1,"inconclusive: 25.9 µM [rising, single point]",
COC(=O)Nc1ccc(S(=O)(=O)N2CCCC(C(=O)Nc3cccc4c3OCCO4)C2)cc1 (stereo not drawn),"inconclusive: 18.4 µM [cytotoxic, partial curve]",
Cc1ccc(Nc2c([N+](=O)[O-])c(=O)n(C)c3ccccc23)cc1,"inconclusive: 18.4 µM [cytotoxic, single point]",
CC1CCCN(c2c3c(nc4ccccc24)CCCC3)C1 (stereo not drawn),"inconclusive: 18.4 µM [cytotoxic, single point]",
Cc1ccccc1N(CC(=O)NCC1CCCO1)C(=O)C1(C)CC(=O)N=C2C=CC=CN21 (stereo not drawn),"inconclusive: 35.5 µM [cytotoxic, single point]",
Cc1ccc(S(=O)(=O)Nc2ccccc2NS(=O)(=O)c2ccc(C)cc2)cc1,active: 20.6 µM,
COC(=O)c1ccc(C)c(NC(=O)CCn2[nH]c(=O)ccc2=O)c1,"inconclusive: 18.4 µM [rising, single point]",
COc1ccc(-c2nc(CS(=O)CC(=O)NCCN3CCCCC3C)c(C)o2)cc1OC (stereo not drawn),,inconclusive: -14.4%
CS(=O)(=O)N1CCc2cc(S(=O)(=O)N3CCN(Cc4ccc5c(c4)OCO5)CC3)ccc21,active: 20.6 µM,
COC(=O)c1sc(NC(=S)NC(=O)c2ccccc2F)nc1C,inactive,
O=C(COC(=O)c1ccc([N+](=O)[O-])o1)Nc1ccc2c(c1)OC(F)(F)O2,"inconclusive: 29.1 µM [rising, single point]",

# Eight consecutive compounds out of the list so far, for reference:
Structure (SMILES),Potency,"activity change, negative = cytotoxicity"
CC(Nc1ccccc1N1CCCCC1)C(=O)N1CCc2ccccc21 (stereo not drawn),inactive,
CCOC(=O)C1=C(C)NC(C)=C(C(=O)OCC)C1c1cccc([N+](=O)[O-])c1,"inconclusive: 10.3 µM [cytotoxic, partial curve, poor fit]",
NC(=O)c1cn(-c2ccccc2)nc1-c1cc2ccccc2oc1=O,inactive,
Cc1ccc(Oc2cc(NC(=O)CCCn3nc([N+](=O)[O-])cc3C)cc([N+](=O)[O-])c2)cc1,active: 5.17 µM,
CCCCC(CC)C1OCC(C[N+]2(C)CCOCC2)O1 (stereo not drawn),"inconclusive: 29.1 µM [rising, single point]",
Clc1ccccc1-c1nnc(-c2ccc3c(c2)OCO3)o1,"inconclusive: 18.4 µM [cytotoxic, single point]",
Cc1ccc2c(c1)c1c3n2CC(=C2C(=O)OC(C)(C)OC2=O)NC3CCC1 (stereo not drawn),active: 20.6 µM,
C=CCn1c(-c2cc(OC)c(OC)c(OC)c2)n[nH]c1=S,"inconclusive: 35.5 µM [cytotoxic, single point]",

# Next results follow.

Structure (SMILES),Potency,"activity change, negative = cytotoxicity"
COC(=O)c1c(NC(=O)c2ccc(S(=O)(=O)N3CC(C)OC(C)C3)cc2)sc2c1CCN(C)C2 (stereo not drawn),inactive,
CCc1ccc2[nH]c(=O)c(C(c3nnnn3Cc3ccco3)N3CCC(C)CC3)cc2c1 (stereo not drawn),"inconclusive: 18.4 µM [cytotoxic, single point]",
CN1CCN(c2nc3c(c(=O)[nH]c(=O)n3C)n2CCCSc2ncccn2)CC1,"inconclusive: 25.9 µM [rising, single point]",
Clc1ccc(-c2csc(=Nc3cccnc3)n2CCCn2ccnc2)cc1Cl,active: 10.3 µM,
COc1ccc(-c2nnn3c2nc(N2CCCC(C)C2)c2ccccc23)cc1 (stereo not drawn),"inconclusive: 0.82 µM [rising, full curve]",
O=C(CCl)N1CCN(S(=O)(=O)c2ccc3ccccc3c2)CC1,"inconclusive: 29.1 µM [cytotoxic, single point]",
Cc1ccc(C)c(N(C)C(=O)C2CCN(S(=O)(=O)c3cccc4nsnc34)CC2)c1,inactive,
COc1ccc(N2CCN(C(=O)CCS(=O)(=O)c3cc4c(cc3Cl)NC(=O)CO4)CC2)cc1,inactive,
Cc1ccc2[nH]c3c(=O)n4c(nc3c2c1)SCC4,"inconclusive: 23.1 µM [cytotoxic, single point]",
CCOC(=O)C1(Cc2cccc(F)c2)CCN(Cc2cn(CC)nc2C)CC1,"inconclusive: 9.2 µM [cytotoxic, partial curve]",
O=C(NC1CC1)C1=C[C@H](c2ccc(Br)cc2)C[C@H](OCc2ccc(CO)cc2)O1,"inconclusive: 1.03 µM [cytotoxic, full curve]",
COc1ccccc1N(C)S(=O)(=O)c1ccc(C(=O)N(C)Cc2ccc(OC(F)F)cc2)cc1,"inconclusive: 3.26 µM [cytotoxic, partial curve, poor fit]",
CCC(=O)Nc1cccc(NC(=S)NC(=O)c2cccs2)c1,"inconclusive: 16.4 µM [cytotoxic, single point]",
Cc1ccc(C)c(NC(=O)Cc2csc(-c3ccccc3)n2)c1,inactive,
CC(=Nc1ccccc1)C1=C(O)C(CC(C)C)NC1=O (stereo not drawn),active: 23.1 µM,
CC(C)Cn1c(N)c(C(=O)COC(=O)c2ccc(F)cc2)c(=O)n(C)c1=O,"inconclusive: 20.6 µM [cytotoxic, single point]",
CN1CCN(CC(=O)N2c3ccccc3C(C)(c3ccccc3)CC2(C)C)CC1 (stereo not drawn),"inconclusive: 8.2 µM [cytotoxic, partial curve]",
Clc1ccccc1-c1nc(Nc2ccccc2)nc2ccc(Br)cc12,inactive,
O=C(CSc1nnc(Cc2cccs2)n1Cc1ccco1)Nc1cccc(Cl)c1,"inconclusive: 8.2 µM [cytotoxic, partial curve]",
COc1cccc(CC(=O)N2CCCC(CO)(Cc3ccc(F)cc3F)C2)c1 (stereo not drawn),"inconclusive: 16.4 µM [cytotoxic, partial curve]",
CCN(C(=O)COC(=O)c1nc2nc(C)cc(C)n2n1)C1CCCCC1,"inconclusive: 29.1 µM [rising, single point]",
